In US20200055871A1, “ACTIVATORS OF THE RETINOIC ACID INDUCIBLE GENE "RIG-I" PATHWAY AND METHODS OF USE THEREOF” (Kineta Immuno-Oncology LLC, priority 2018, published 2020):
At least one read-out could not be matched to a standard name with certainty.

System: IRF3-deficient THP1-Lucia™ ISG IRF3−/− cells
Experiment: THP1-Lucia ISG IRF3−/− reporter assay (IRF3-deficient control cells)
Format: cell-based, human
Details: compound 5 to 20 μM, 18 h
Procedure: The promoter was comprised of five IFN-stimulated response elements (ISRE) fused to an ISG54 minimal promoter which is unresponsive to NF-kB or AP-1 pathways. […] The IRF3-deficient THP1-Lucia™ ISG IRF3−/−reporter cell line was generated by CRISPR technology from the parent THP1-Lucia™ ISG reporter cell line.
THP1-Lucia™ ISG cells and IRF3-deficient THP1-Lucia™ ISG IRF3−/−cells were differentiated with PMA (100 ng/ml) and stimulated with compounds at the indicated concentrations (5 to 20 μM), positive control, or not treated (background). Luciferase secretion was quantified using the QUANTI-Luc luciferase assay system (InvivoGen) 18 h after stimulation. Data are shown as fold increase luciferase activity over background in Table 7 and represent the IRF3-dependent ISG54 promoter activity by the THP1-Lucia™ ISG cells in response to compounds. […] The fold increase of compounds (10 μM, *20 μM, **5 μM) induced IRF3 dependent luciferase activity is indicated as follows: “≠” indicates less than 2.4 fold increase; “+” indicates a 2.4-4.9 fold increase; “++” indicates a 5-9.9 fold increase; “+++” indicates a 10-19 fold increase; “++++” indicates a 20-39 fold increase; “+++++” indicates greater than or equal to 40 fold increase.

**Q.** With `O=C(Nc1nc2ccc3scnc3c2s1)c1cc2ccccc2cc1OCCN1CCOCC1` [Example 24, N-{3,10-dithia-5,12-diazatricyclo[7.3.0.0^2,^6]dodeca-1,4,6,8,11-pentaen-4-yl}-3-[2-(morpholin-4-yl)ethoxy]naphthalene-2-carboxamide] as the molecule, how does the “fold increase of luciferase activity, THP1 ISG IRF3−/−” value (“fold increase of luciferase activity” below) read?
**A.** − (less than 0.5 fold above baseline was considered below the level of quantitation)

**Q.** Which “fold increase of luciferase activity” value does the source give for `O=C(Nc1nc2ccc3scnc3c2s1)c1cc2ccccc2cc1OCCCCN1CCOCC1` [Example 28, N-{3,10-dithia-5,12-diazatricyclo[7.3.0.0^2,^6]dodeca-1,4,6,8,11-pentaen-4-yl}-3-[4-(morpholin-4-yl)butoxy]naphthalene-2-carboxamide] here?
**A.** − (less than 0.5 fold above baseline was considered below the level of quantitation)

**Q.** For `O=C(Nc1nc2ccc3scnc3c2s1)c1cc2ccccc2cc1OCCC1CCOCC1` [Example 27, N-{3,10-dithia-5,12-diazatricyclo[7.3.0.0^2,^6]dodeca-1,4,6,8,11-pentaen-4-yl}-3-[2-(oxan-4-yl)ethoxy]naphthalene-2-carboxamide], which “fold increase of luciferase activity” value is on record?
**A.** − (less than 0.5 fold above baseline was considered below the level of quantitation)

**Q.** `CSc1nc2c(ccc3nc(NC(=O)c4cc5ccccc5cc4OCCN4CCOCC4)sc32)s1` [Example 35, N-[11-(methylsulfanyl)-3,10-dithia-5,12-diazatricyclo[7.3.0.0^2,^6]dodeca-1,4,6,8,11-pentaen-4-yl]-3-[2-(morpholin-4-yl)ethoxy]naphthalene-2-carboxamide] was tested. Which “fold increase of luciferase activity” value did it give?
**A.** − (less than 0.5 fold above baseline was considered below the level of quantitation)

**Q.** With `O=C(Nc1nc2ccc3scnc3c2s1)c1cc2ccccc2cc1OCCN1CC2(COC2)C1` [Example 34, N-{3,10-dithia-5,12-diazatricyclo[7.3.0.0^2,^6]dodeca-1,4,6,8,11-pentaen-4-yl}-3-(2-{2-oxa-6-azaspiro[3.3]heptan-6-yl}ethoxy)naphthalene-2-carboxamide] as the molecule, how does the “fold increase of luciferase activity” value read?
**A.** − (less than 0.5 fold above baseline was considered below the level of quantitation)

**Q.** With `CSc1nc2c(ccc3nc(NC(=O)c4cc5ccccc5cc4OCCCN4CCOCC4)sc32)s1` [Example 36, N-[11-(methylsulfanyl)-3,10-dithia-5,12-diazatricyclo[7.3.0.0^2,^6]dodeca-1,4,6,8,11-pentaen-4-yl]-3-[3-(morpholin-4-yl)propoxy]naphthalene-2-carboxamide] as the molecule, how does the “fold increase of luciferase activity” value read?
**A.** − (less than 0.5 fold above baseline was considered below the level of quantitation)

**Q.** How did the “fold increase of luciferase activity” value turn out when `COc1nc2c(ccc3nc(NC(=O)c4ccc5ccccc5c4)sc32)s1` [Example 22, N-{11-methoxy-3,10-dithia-5,12-diazatricyclo[7.3.0.0^2,^6]dodeca-1,4,6,8,11-pentaen-4-yl}naphthalene-2-carboxamide] was run?
**A.** − (less than 0.5 fold above baseline was considered below the level of quantitation)

**Q.** `COc1cc(OC)cc(C(=O)Nc2nc3ccc4sc(C)nc4c3s2)c1` [Example 2, 3,5-dimethoxy-N-{11-methyl-3,10-dithia-5,12-diazatricyclo[7.3.0.0^2,^6]dodeca-1,4,6,8,11-pentaen-4-yl}benzamide] was tested. Which “fold increase of luciferase activity” value did it give?
**A.** − (less than 0.5 fold above baseline was considered below the level of quantitation)

**Q.** With `CCCCCOc1ccc(C(=O)Nc2nc3ccc4sc(C)nc4c3s2)cc1` [Example 5, N-{11-methyl-3,10-dithia-5,12-diazatricyclo[7.3.0.0^2,^6]dodeca-1,4,6,8,11-pentaen-4-yl}-4-(pentyloxy)benzamide] as the molecule, how does the “fold increase of luciferase activity” value read?
**A.** − (less than 0.5 fold above baseline was considered below the level of quantitation)

**Q.** For `O=C(Nc1nc2ccc3scnc3c2s1)c1cc2ccsc2cc1OCCCCN1CCOCC1` [Example 43, N-{3,10-dithia-5,12-diazatricyclo[7.3.0.0^2,^6]dodeca-1,4,6,8,11-pentaen-4-yl}-6-[4-(morpholin-4-yl)butoxy]-1-benzothiophene-5-carboxamide], which “fold increase of luciferase activity” value is on record?
**A.** − (less than 0.5 fold above baseline was considered below the level of quantitation)
